# Reference: PubChem BioAssay AID2685 (National Center for Advancing Translational Sciences (NCATS), 2010)
# Among all 320,000 compounds or so, about 2,100 (0.66%) were called active. Inconclusive means that the source gave no clear call. Such entries were picked first, then a sample of the others. Calls come from the whole dose curve; as a rule, active = well fitted inhibition curve with a large enough effect in the signal ratio, with a control signal flat (not every such curve was filed as active); inconclusive = small, poorly fitted or top-dose-only effect, or effect the other way, or a change in a side signal; inactive = flat fitted curve, though single readings scatter; the % refers to the signal ratio. Where the call is inconclusive, the potency comes from a doubtful curve fit.
# Assay: qHTS Assay for Lipid Storage Modulators in Drosophila S3 Cells
# Details: BODIPY lipid droplet fluorescence, 18-24 h, cells fed with added oleic acid; lipid storage change, negative = inhibition: at 46.1 µM (top of the series) unless noted
# Method in brief: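 Laser-scanning cytometry quantifies lipid droplet accumulation (500–530 nm total intensity; droplet/cell object ratio) in oleic acid-fed (400 uM added) Drosophila S3 cells treated with a concentration series. 20 uM Triacsin C defined 100% inhibition.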
# % is set by controls: 0 for no effect and ±100 for the full control effect; potency is the fitted concentration of half-maximal effect.
SMILES,Potency,"lipid storage change, negative = inhibition"
O=C(O)CCC(NS(=O)(=O)c1ccc(N2CCCC2=O)cc1)C(=O)O (stereo not drawn),"inconclusive: 5.17 µM [activator, partial curve]",
Cc1ccc(-n2c(=O)c(C#N)cc3c(=O)n4cccc(C)c4nc32)cc1,,inconclusive: 7.17%
C=CCOC(=O)C1=C(C)OC(N)=C(C#N)C1c1ccc(F)cc1 (stereo not drawn),"inconclusive: 10.3 µM [activator, partial curve]",
CNC(=S)NNC(=O)c1oc2nc(-c3ccccc3)cc(C)c2c1N,,inconclusive: 7.99%
S=C1NC2=C(C(c3ccc(Br)cc3)N1)N1CCC2CC1 (stereo not drawn),,inconclusive: -5.13%
c1cncc(Nc2nc(-c3ccncc3)cs2)c1,"inconclusive: 29.1 µM [activator, single point]",
CCN(CC(=O)Nc1ccc(NC(C)=O)cc1)C(=O)/C=C/c1cn(-c2ccccc2)nc1-c1ccc(C)cc1,"inconclusive: 0.164 µM [activator, partial curve, poor fit]",
O=C(O)C1CCN(c2ccccc2[N+](=O)[O-])CC1,,inconclusive: -9.99%
Cc1cccc(N2C(=O)C3C4C=CC(C4)C3C2=O)c1 (stereo not drawn),,inconclusive: -5.33%
CC(NC(=O)CCNS(=O)(=O)c1ccc2c(c1)c(=O)n(C)c(=O)n2C)c1ccccc1 (stereo not drawn),"inconclusive: 0.651 µM [falling, full curve, poor fit]",
Cc1nn(CC(=O)NC(=O)c2ccccc2)c(C)c1[N+](=O)[O-],,inconclusive: 5.12%
Cc1cccc(/C(N)=N/OC(=O)CCc2ccccc2)c1,"inconclusive: 8.2 µM [falling, partial curve, poor fit]",
COc1ccc(NC(=O)CSc2nc3scc(C)c3c(=O)[nH]2)cc1,,inactive: 19.3%
Cc1cccc(-n2c(CNC(=O)c3ccc(S(=O)(=O)N(C)C)cc3)nnc2SCC(=O)Nc2ccc(F)cc2)c1,,inconclusive: -15.7%
O=Cc1ccccc1OS(=O)(=O)c1ccccc1,,inactive: -12.7%
CN(C)S(=O)(=O)c1cc(NC(=O)CN2CCCc3ccccc32)ccc1Cl,,inconclusive: -11.7%
COc1cc(C(F)(F)F)nc2ccc(C#CCOC(=O)Nc3ccccc3)cc12,"inconclusive: 18.4 µM [activator, partial curve]",
COCCCn1c(SCc2ccc(OC)cc2)nc2cc(OC)c(OC)cc2c1=N,"inconclusive: 18.4 µM [falling, single point]",
O=C(NCc1ccc(Cl)cc1Cl)C1CCN(S(=O)(=O)c2ccc3c(c2)OCCCO3)CC1,"inconclusive: 29.1 µM [falling, single point]",
Cc1cc(C)n(C(=O)CSc2nc3ccccc3o2)n1,,inconclusive: 3.46%
COc1ccc(N(CC(=O)Nc2ccc(C)c(C)c2)C2=NC3CS(=O)(=O)CC3S2)cc1 (stereo not drawn),,inconclusive: -3.7%
c1ccc(-c2cncnc2)nc1,,inconclusive: 6.61%
CCCNS(=O)(=O)c1ccc(Oc2ncc(C(F)(F)F)cc2Cl)cc1,,inconclusive: -9.21%
Cc1ccc(S(=O)(=O)Nc2ccc(=O)n(Cc3ccc(Cl)c(Cl)c3)c2)cc1,,inconclusive: -33.3%

# Single records, from the list above:
# Cc1cc(C)n(C(=O)CSc2nc3ccccc3o2)n1 as listed: lipid storage change, negative = inhibition: inconclusive: 3.46%
# CC(NC(=O)CCNS(=O)(=O)c1ccc2c(c1)c(=O)n(C)c(=O)n2C)c1ccccc1 (stereo not drawn) as listed: Potency: inconclusive: 0.651 µM [falling, full curve, poor fit]
# c1ccc(-c2cncnc2)nc1 as listed: lipid storage change, negative = inhibition: inconclusive: 6.61%
# CCN(CC(=O)Nc1ccc(NC(C)=O)cc1)C(=O)/C=C/c1cn(-c2ccccc2)nc1-c1ccc(C)cc1 as listed: Potency: inconclusive: 0.164 µM [activator, partial curve, poor fit]

# Additional records follow:

SMILES,Potency,"lipid storage change, negative = inhibition"
COc1ccc(/C=C/C(=O)NCCCN2CCCC2)cc1,,inconclusive: 10.1%
CC(=O)OCC(=O)C1CCC2C3CC=C4CC(O)CCC4(C)C3CCC12C (stereo not drawn),,inconclusive: -5.15%
COc1ccc([C@@H]2[C@@H]3C(=O)N(C(C)(C)C)C(=O)[C@@H]3[C@]3(CC(C)C)C(=O)N(c4cccc(Br)c4)C(=O)N23)cc1,"inconclusive: 29.1 µM [activator, single point]",
O=S(=O)(c1ccc(NC(=S)N/N=C/c2cccc(Oc3ccccc3)c2)cc1)N1CCOCC1,,inconclusive: -38.5% [cytotoxic] [at 0.369 µM]
CC(C)(C)OC(=O)N1CC(O)CC1C(=O)OCC(=O)c1ccc(Cl)cc1 (stereo not drawn),,inconclusive: 20.5%
O=C(Nc1ccc(S(=O)(=O)NC2=NCCCCC2)cc1)c1cc(S(=O)(=O)N2CCOCC2)ccc1F,,inconclusive: 14.5%
O=C(Nc1ccc(CN2CCOCC2)cc1)c1ccc(-c2cccc(Cl)c2)o1,,inconclusive: 7.23%
CC(O)c1ccc(-n2cnnn2)cc1 (stereo not drawn),,inconclusive: 1.41%
Cc1cc(NC(=O)C(C)SCC(=O)Nc2ccccc2C(C)(C)C)no1 (stereo not drawn),,inconclusive: 21.6%
O=C(COC(=O)c1ccc2c(c1)OCCO2)NCCC1=CCCCC1,"inconclusive: 18.4 µM [falling, partial curve]",
CCOc1ccc(C2CC(c3cccc(OC)c3)Nc3ncnn32)cc1 (stereo not drawn),,inconclusive: -5.61% [at 9.22 µM]
CC(C)(C)c1ccc(C(=O)NC(=O)CSc2n[nH]c(N)n2)cc1,,inconclusive: 28.1%
CCCCN(C(=O)c1ccc(NC2CC2)c([N+](=O)[O-])c1)c1c(N)n(CCCC)c(=O)[nH]c1=O,,inactive: 2%
CC(C)Oc1ccc(C(=O)Nc2cc(=O)n(C)c(=O)n2C)cc1,,inconclusive: -10.1%
Cc1oncc1C(=O)Nc1cccc(C#N)c1,,inconclusive: 12.8%
Cc1ccc(NC2=NCCC2)cc1Cl,,inactive: -2.15%
O=C(CSc1nc2scc(-c3ccccc3)c2c(=O)[nH]1)N1CCOCC1,"inconclusive: 0.231 µM [falling, full curve, poor fit]",
CCc1c(C)c(C#N)c2nc3ccccc3n2c1NCc1ccco1,"inconclusive: 0.0291 µM [activator, full curve]",
COc1ccc(-c2nnc(NC(=O)c3cc(Cl)ccc3Cl)o2)cc1,"inconclusive: 29.1 µM [cytotoxic, single point]",
Cc1ccc(S(=O)(=O)N2CCOCC2)cc1NC(=O)COC(=O)c1cnccn1,"inconclusive: 0.164 µM [activator, full curve]",
O=C(NCCC(=O)N1CCCCC1)c1ccccc1Cl,,inconclusive: 40.9%
O=C(O)CCN1C(=O)c2ccc(NC(=O)C(c3ccccc3)c3ccccc3)cc2C1=O,,inconclusive: 42%
O=C(NC1CC2CCCC(C1)N2C(=S)Nc1ccccc1Cl)C1CC1 (stereo not drawn),,inconclusive: -118%
CC(=O)C12CCCCC1CC1C3CC(C)C4(O)CC(=O)CCC4(C)C3CCC12C (stereo not drawn),,inconclusive: -11.2%
